The experiment concerns P388 leukemia ip, CD2F1 mice, survival T/C. Description: NCI In Vivo Anticancer Drug Screen. Data for tumor model P388 Leukemia (intraperitoneal) in CD2F1 (CDF1) mice. The settings on record: T/C endpoint: median survival time, higher T/C = longer survival.
The mark [1] stands for this setting: dose: 240.0 mg/kg/injection, schedule: Q01DX005 (ip), vehicle: saline with Tween-80.
Setting [2] is: dose: 200.0 mg/kg/injection, schedule: Q01DX005 (ip), vehicle: saline with Tween-80.
Setting [3] is: dose: 200.0 mg/kg/injection, schedule: Q01DX005 (ip), vehicle: saline.
[4] abbreviates: dose: 100.0 mg/kg/injection, schedule: Q01DX005 (ip), vehicle: saline with Tween-80.
Where [5] appears, read: dose: 200.0 mg/kg/injection, schedule: Q01DX009 (ip), vehicle: saline.
[6] abbreviates: dose: 100.0 mg/kg/injection, schedule: Q01DX001 (ip), vehicle: saline with Tween-80.
Where [7] appears, read: dose: 200.0 mg/kg/injection, schedule: Q01DX001 (ip), vehicle: saline with Tween-80.
[8] abbreviates: dose: 400.0 mg/kg/injection, schedule: Q01DX001 (ip), vehicle: saline with Tween-80.
[9] abbreviates: dose: 50.0 mg/kg/injection, schedule: Q01DX009 (ip), vehicle: saline with Tween-80.
The mark [10] stands for this setting: dose: 400.0 mg/kg/injection, schedule: Q04DX003 (ip), vehicle: saline with Tween-80.
The mark [11] stands for this setting: dose: 100.0 mg/kg/injection, schedule: Q01DX009 (ip), vehicle: saline with Tween-80.
[12] abbreviates: dose: 200.0 mg/kg/injection, schedule: Q01DX009 (ip), vehicle: saline with Tween-80.
[13] abbreviates: dose: 100.0 mg/kg/injection, schedule: Q04DX003 (ip), vehicle: Klucel (hydroxypropylcellulose) (HPC).

The list shows only some results of the screen, not a fair sample: it is rich in T/C values a quarter to a half above the control, in often repeated tests (any T/C) and in doses without a T/C. Other doses and runs of a compound stand elsewhere. T/C gives the treated animals as a percentage of the vehicle group. Some doses have a count of surviving animals in place of a T/C: the source files T/C as zero there, which appears to mark a toxic dose or a test without result, not a measured value. Some survivor counts are full or nearly so, which does not show that the dose was tolerated: survival well below the control is almost never listed, so the zero probably covers shortened survival too. Survivors were counted at the toxicity check, usually on the fifth day, unless a day is given; later deaths do not show. Schedule codes are those of the source, read here as Q, the interval in days (D) or hours (H), X, the number of doses. For survival time, the PubChem record calls one and a half times the control and up active, and a quarter to a half above the control has no call in these data; cut-offs in other NCI protocols can differ. Some doses were run more than once; their values stand side by side, smallest first. Some T/C values are followed by the survivors on the day toxicity was checked, most often the fifth; where none is given, no animal had died by that day.

`CC(/C=C/c1ccc(Cl)c(Cl)c1)=N\NC(N)=S`: the survivor count reads like this: (dose: 120.0 mg/kg/injection, schedule: Q01DX005 (ip), vehicle: saline with Tween-80) 0 of 6; under setting [1], 0 of 6. Turning to `O=c1c(Cl)c(Cl)oc(Cl)c1Cl`, the survivor count under setting [2] is listed as 0 of 6.

On to `Cc1cc(N=[N+]=[N-])c2ccccc2n1`, for which, under setting [1], the survivor count was 0 of 6. For `NC(N)=NS(=O)(=O)c1ccc(N=NC2C(=O)N(c3ccc(Cl)cc3)C(=S)N(c3ccc(Cl)cc3)C2=O)cc1`, the T/C under setting [3] was 136 % of control [4 of 6 alive]. As to `Cc1ccc(-n2c(=O)[nH]c3ccccc3c2=O)cc1[N+](=O)[O-]`, the survivor count runs as follows: (dose: 25.0 mg/kg/injection, schedule: Q01DX005 (ip), vehicle: saline with Tween-80) 5 of 5; (dose: 50.0 mg/kg/injection, schedule: Q01DX005 (ip), vehicle: saline with Tween-80) 6 of 6; under setting [4], 6 of 6. Regarding `CC(C)c1ccccc1N1C(=O)CC(Sc2ccccc2N)C1=O` (stereo not drawn), the survivor count (dose: 100.0 mg/kg/injection, schedule: Q01DX005 (ip), vehicle: Klucel (hydroxypropylcellulose) (HPC)) was 5 of 5. Regarding `N#Cc1c(Cl)nc2sccn12`, for the setting “dose: 400.0 mg/kg/injection, schedule: Q01DX001 (ip), vehicle: Klucel (hydroxypropylcellulose) (HPC)”, the survivor count was 0 of 6. For `c1onc2cc3c(cc12)OCO3`, the T/C was 125 % of control (dose: 0.78 mg/kg/injection, schedule: Q01DX009 (ip), vehicle: Klucel (hydroxypropylcellulose) (HPC)) and 130 % of control (dose: 3.13 mg/kg/injection, schedule: Q01DX009 (ip), vehicle: Klucel (hydroxypropylcellulose) (HPC)). Further, the survivor count (dose: 6.25 mg/kg/injection, schedule: Q01DX009 (ip), vehicle: Klucel (hydroxypropylcellulose) (HPC)) is 6 of 6. With `CN(C)CCC(=O)c1cccc([N+](=O)[O-])c1`, the survivor count under setting [5] is given as 1 of 6. With `COc1ccc(O)c2c1C(=O)C=CC2=O`, the survivor count (dose: 1.6 mg/kg/injection, schedule: Q01DX001 (ip), vehicle: saline with Tween-80) is given as 4 of 6; the survivor count (dose: 6.25 mg/kg/injection, schedule: Q01DX001 (ip), vehicle: saline with Tween-80) was 0 of 5; the survivor count (dose: 12.5 mg/kg/injection, schedule: Q01DX001 (ip), vehicle: saline with Tween-80) was 0 of 5; the survivor count (dose: 25.0 mg/kg/injection, schedule: Q01DX001 (ip), vehicle: saline with Tween-80) is listed as 0 of 5; the survivor count (dose: 50.0 mg/kg/injection, schedule: Q01DX001 (ip), vehicle: saline with Tween-80) was 0 of 5; the survivor count under setting [6] is on record as 0 of 6. Besides, the survivor count reads like this: under setting [7], 0 of 6; under setting [8], 0 of 6. In the case of `CC(NC(=O)C(Cc1ccccc1)NC(=O)c1ccc[n+](Cc2ccccc2)c1)C(N)=O` (stereo not drawn), the survivor count (dose: 240.0 mg/kg/injection, schedule: Q01DX005 (ip), vehicle: saline) was 0 of 6.

As to `CC1CN1P(=O)(OCCCl)N1CC1C` (stereo not drawn), the survivor count under setting [5] was 4 of 6. In the case of `Nc1ccc2cc3c(nc2n1)[nH]c1ccccc13`, the survivor count under setting [9] was 4 of 5. For the compound `COc1ccc(C(=O)c2ncccc2C)cc1OC`, the survivor count reads like this: (dose: 25.0 mg/kg/injection, schedule: Q01DX009 (ip), vehicle: other) 6 of 6; (dose: 400.0 mg/kg/injection, schedule: Q01DX009 (ip), vehicle: other) 3 of 6. As to `CC(=O)Nc1cc(F)c2c(c1F)Cc1cc(F)ccc1-2`, the survivor count (dose: 400.0 mg/kg/injection, schedule: Q01DX009 (ip), vehicle: saline with Tween-80) is on record as 6 of 6. Regarding `NSc1nc2ccccc2s1`, the survivor count under setting [10] is listed as 5 of 6. With `Cc1ccc(S(=O)(=O)N(CCOc2c3occc3cc3ccc(=O)oc23)CCN(CCN(CCOc2c3occc3cc3ccc(=O)oc23)S(=O)(=O)c2ccc(C)cc2)S(=O)(=O)c2ccc(C)cc2)cc1`, under setting [8], the survivor count is 6 of 6. Consider `COc1cccc2c1C(=O)c1c(O)c3c(c(O)c1C2=O)C[C@@](O)(C(=O)CO)C[C@@H]3OC1CC(NC(=O)C(N)CC(C)C)C(O)C(C)O1` (stereo partly drawn), for which the T/C runs as follows: (dose: 3.12 mg/kg/injection, schedule: Q04DX003 (ip), vehicle: saline) 135 % of control; (dose: 6.25 mg/kg/injection, schedule: Q04DX003 (ip), vehicle: saline) 125 % of control; (dose: 12.5 mg/kg/injection, schedule: Q04DX003 (ip), vehicle: saline) 127 and 137 % of control; (dose: 25.0 mg/kg/injection, schedule: Q04DX003 (ip), vehicle: saline) 147 % of control; (dose: 50.0 mg/kg/injection, schedule: Q04DX003 (ip), vehicle: saline) 131 and 141 % of control. For the compound `Cc1ccc(N2C(=O)N(c3ccc(C)cc3)C3(Sc4ccccc4N3C)C2=O)cc1` (stereo not drawn), the survivor count by setting is: (dose: 200.0 mg/kg/injection, schedule: Q04DX002 (ip), vehicle: saline with Tween-80) 6 of 6; (dose: 400.0 mg/kg/injection, schedule: Q04DX002 (ip), vehicle: saline with Tween-80) 6 of 6. For the compound `CC(C)Nc1nc(NCC2CC2)nc(ON2C(=O)CCC2=O)n1`, under setting [11], the survivor count is given as 6 of 6. Turning to `COc1ccc(Cc2c3ccccc3cc[n+]2C)cc1Oc1ccc(Cc2c3ccccc3cc[n+]2C)cc1`, the survivor count is 0 of 6 (dose: 3.13 mg/kg/injection, schedule: Q01DX009 (ip), vehicle: saline with Tween-80); 0 of 6 (dose: 6.25 mg/kg/injection, schedule: Q01DX009 (ip), vehicle: saline with Tween-80); 0 of 6 (dose: 12.5 mg/kg/injection, schedule: Q01DX009 (ip), vehicle: saline with Tween-80); 0 of 6 (dose: 25.0 mg/kg/injection, schedule: Q01DX009 (ip), vehicle: saline with Tween-80); 0 of 6 under setting [9]; 0 of 6 under setting [11]. The survivor count under setting [12] is recorded as 0 of 6. As for `CCCCOP(=O)(O)OCCCC.[Th]`, the survivor count was 6 of 6 under setting [6] and 6 of 6 under setting [7]. `CCC(Br)C(=O)SC(C)(C)C` (stereo not drawn): the survivor count under setting [10] is listed as 1 of 6.

Regarding `C=C1C(=O)OC(CCCCCCCCCCCCCC(C)=O)[C@H]1C(=O)O` (stereo partly drawn), the survivor count (dose: 80.0 mg/kg/injection, schedule: Q01DX005 (ip), vehicle: Klucel (hydroxypropylcellulose) (HPC)) is listed as 0 of 6. As for `O=C1C=C(N(CCCl)CCCl)C(=O)C=C1N(CCCl)CCCl`, the T/C under setting [13] is 142 % of control [5 of 6 alive]. As to `O=C(O)c1nn(-c2ccccc2)c2c1CSc1ccccc1-2`, the survivor count under setting [8] was 0 of 6.

`Nc1c[nH]c(=S)s1`: the survivor count under setting [12] is recorded as 0 of 6. With `O=C1C=CC(=Nc2ccc3c(c2)C(=O)c2ccccc2-3)O1`, the survivor count under setting [2] is 2 of 6. With `COC(=O)COc1cc2c(cc1C(C)c1ccc(OCc3ccccc3)cc1)OCO2` (stereo not drawn), the survivor count reads like this: (dose: 25.0 mg/kg/injection, schedule: Q01DX005 (ip), vehicle: distilled water + Tween-80) 6 of 6; (dose: 50.0 mg/kg/injection, schedule: Q01DX005 (ip), vehicle: distilled water + Tween-80) 6 of 6; (dose: 100.0 mg/kg/injection, schedule: Q01DX005 (ip), vehicle: distilled water + Tween-80) 6 of 6. Turning to `O=[N+]([O-])c1ccc2c(ccc3sc4ccccc4[n+]32)c1`, the survivor count is, setting by setting: under setting [4], 3 of 6; under setting [2], 0 of 6. With `CC(Cl)CN(Cc1cc(O)c(CN(CC(C)Cl)CC(C)Cl)cc1O)CC(C)Cl` (stereo not drawn), the T/C under setting [13] was 127 % of control and the T/C (dose: 400.0 mg/kg/injection, schedule: Q04DX003 (ip), vehicle: Klucel (hydroxypropylcellulose) (HPC)) is 136 % of control. With `CC(=O)C1CO1` (stereo not drawn), the survivor count runs as follows: (dose: 100.0 mg/kg/injection, schedule: Q01DX005 (ip), vehicle: saline) 5 of 5; under setting [3], 0 of 5. Take `CC(C)CCSC1=CC(=O)c2ccccc2C1=O`: the survivor count under setting [9] is 4 of 6.

Values taken from PubChem BioAssay AID330 (DTP/NCI, 2004).
